Some results were stated once for a whole list of compounds, not compound by compound.
Each compound was assayed against T1, human cathepsin K (Homo sapiens, UniProt P43235) (assay: Human cathepsin K peptidase activity assay (fluorogenic AMC substrate), apparent inhibition constant). Conditions: read-out: Ki (inhibitors of cathepsin K).
T1 construct: purchased Dr. Boris Turk (Josef Stefan Institute, Ljubljana, Slovenia)
T1 sequence (P43235 115-329): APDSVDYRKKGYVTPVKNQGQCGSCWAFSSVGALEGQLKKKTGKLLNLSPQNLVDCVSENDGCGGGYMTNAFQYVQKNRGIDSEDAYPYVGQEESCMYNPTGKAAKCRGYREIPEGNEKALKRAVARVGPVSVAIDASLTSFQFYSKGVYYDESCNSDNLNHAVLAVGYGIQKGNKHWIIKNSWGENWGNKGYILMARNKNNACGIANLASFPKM
Format: biochemical

Ki, < 50 µM:
CC(C)C(OC(=O)N1CC[C@@H]2[C@H]1C(=O)CN2C(=O)c1ccccc1)C(C)C [Example 1, (3aR,6aS)-4-Benzoyl-6-oxo-hexahydro-pyrrolo[3,2-b]pyrrole-1-carboxylic acid 1-isopropyl-2-methyl-propyl ester]
CC(=O)N[C@@H](CC(C)C)C(=O)N1CC(=O)[C@@H]2[C@H]1CCN2C(=O)OC(C(C)C)C(C)C [Example 2, (3aR,6aS)-4-(2S-Acetylamino-4-methyl-pentanoyl)-6-oxo-hexahydro-pyrrolo[3,2-b]pyrrole-1-carboxylic acid 1-isopropyl-2-methyl-propyl ester]
CC(=O)N[C@@H](CC(C)C)C(=O)N1CC(=O)[C@@H]2[C@H]1CCN2C(=O)OCC(C)C [Example 3, (3aR,6aS)-4-(2S-Acetylamino-4-methyl-pentanoyl)-6-oxo-hexahydro-pyrrolo[3,2-b]pyrrole-1-carboxylic acid isobutyl ester]
CC(=O)N[C@@H](CC(C)C)C(=O)N1CC(=O)[C@@H]2[C@H]1CCN2C(=O)OC(C)C [Example 4, (3aR,6aS)-4-(2S-Acetylamino-4-methyl-pentanoyl)-6-oxo-hexahydro-pyrrolo[3,2-b]pyrrole-1-carboxylic acid isopropyl ester]
CC(=O)N[C@@H](CC(C)C)C(=O)N1CC(=O)[C@@H]2[C@H]1CCN2C(=O)OCC(C)(C)C [Example 5, (3aR,6aS)-4-(2S-Acetylamino-4-methyl-pentanoyl)-6-oxo-hexahydro-pyrrolo[3,2-b]pyrrole-1-carboxylic acid 2,2-dimethyl-propyl ester]
CCN(CC)C(=O)N1CC[C@@H]2[C@H]1C(=O)CN2C(=O)[C@H](CC(C)C)NC(C)=O [Example 6, (3aR,6aS)-4-(2S-Acetylamino-4-methyl-pentanoyl)-6-oxo-hexahydro-pyrrolo[3,2-b]pyrrole-1-carboxylic acid diethylamide]
CCC(C)NC(=O)N1CC[C@@H]2[C@H]1C(=O)CN2C(=O)[C@H](CC(C)C)NC(C)=O (stereo partly drawn) [Example 7, (3aR,6aS)-4-(2S-Acetylamino-4-methyl-pentanoyl)-6-oxo-hexahydro-pyrrolo[3,2-b]pyrrole-1-carboxylic acid sec-butylamide]
CC(=O)N[C@@H](CC(C)C)C(=O)N1CC(=O)[C@@H]2[C@H]1CCN2C(=O)N1CCCC1 [Example 8]
CC1(C)COC(=O)[C@@H]1OC(=O)N1CC[C@@H]2[C@H]1C(=O)CN2C(=O)c1ccccc1 [Example 9, (3aR,6aS)-4-Benzoyl-6-oxo-hexahydro-pyrrolo[3,2-b]pyrrole-1-carboxylic acid 4,4-dimethyl-2-oxo-tetrahydro-furan-3R-yl ester]
CC1(C)COC(=O)[C@H]1OC(=O)N1CC[C@@H]2[C@H]1C(=O)CN2C(=O)c1ccccc1 [Example 10, (3aR,6aS)-4-Benzoyl-6-oxo-hexahydro-pyrrolo[3,2-b]pyrrole-1-carboxylic acid 4,4-dimethyl-2-oxo-tetrahydro-furan-3S-yl ester]
CC(C)(C)COC(=O)N1CC[C@H]2OCC(=O)[C@H]21 [Example 11, (3aS,6aR)-3-Oxo-hexahydro-furo[3,2-b]pyrrole-4-carboxylic acid 2,2-dimethyl-propyl ester]
O=C1CN(C(=O)c2ccccc2)[C@@H]2CCN(C(=O)OC3(Cc4ccccc4)CCC3)[C@H]12 [Example 12, (3aR,6aS)-1-Benzylcyclobutyl 4-benzoyl-6-oxohexahydropyrrolo[3,2-b]pyrrole-1(2H)-carboxylate]
O=C1CN(C(=O)c2ccccc2)[C@@H]2CCN(C(=O)OC3(CCc4ccccc4)CCC3)[C@H]12 [Example 13, (3aR,6aS)-1-Phenethylcyclobutyl 4-benzoyl-6-oxohexahydropyrrolo[3,2-b]pyrrole-1(2H)-carboxylate]
CCC(Cc1ccsc1)OC(=O)N1CC[C@@H]2[C@H]1C(=O)CN2C(=O)c1ccccc1 (stereo partly drawn) [Example 14, (3aR,6aS)-1-(Thiophen-3-yl)butan-2-yl 4-benzoyl-6-oxohexahydropyrrolo[3,2-b]pyrrole-1(2H)-carboxylate]

Reference: patent US20090131502A1, “Biologically active compounds” (priority 2005, published 2009)
